From the supplement of paper PMC7858590 come the findings set out here.

Values joined by “and” are separate entries in the source; they are usually repeats but may differ in a detail not shown here. Equal entries are not always repeated. ± gives the standard deviation of the averaged measurements. Whole data set: some 3,800 compounds, median “cell shape (eccentricity) Z-score vs DMSO control” near 1.1, cut for the lowest 2% near -4.7. This is one part of the list.

The subject of this experiment is human monocyte-derived macrophages (M0). Description: cell shape (eccentricity) Z-score vs DMSO control; higher = more elongated, M2-like morphology. As to conditions: 20 µM; 24 h; macrophage state: M0 (M-CSF).
On to `COc1ccccc1-c1cc(=O)c2ccccc2o1`, for which the “cell shape (Z-score)” value was 1.19.
The value for `C=CCOC(Cn1ccnc1)c1ccc(Cl)cc1Cl` (configuration not stated) was 3.77; that for `O=C(CCCc1ccc(-c2ccccc2F)cc1)Nc1ccc(O)cc1` was -4.74; that for `Cc1cc(N2CCOCC2)cc2[nH]c(-c3c(NC[C@@H](O)c4cccc(Cl)c4)cc[nH]c3=O)nc12` was 10.2.
To `C[C@H]1CN([C@@H](C)CO)S(=O)(=O)c2ccc(C#Cc3ccncc3)cc2O[C@@H]1CN(C)C(=O)Nc1ccc2c(c1)OCO2` belongs -10.9.
To `Cc1c(C(=O)NC2CCCCC2)sc2nc3ccc(N)cc3n12` belongs 1.17.
In the case of `CCN(CC)c1ccc(C=NNC(=O)c2ccc(O)cc2)cc1`, the “cell shape (Z-score)” value is -2.38.
The value for `C[C@H]1[C@H]2OC3=C(C(=O)OC3(C)O)C(=O)[C@]1(C)[C@H]1CCCC[C@]1(O)[C@H]2O` (some centres not stated) was 1.39; that for `COC(=O)c1cccc2oc3cc(CO)cc(O)c3c(=O)c12` was -0.637 ± 0.72; that for `FC(F)(F)c1ccccc1-n1ccnc1` was 2.11.
In the case of `CC1OC(=O)CC2C(C(=O)O)=CC3CC(C)(C)CC312` (configuration not stated), the “cell shape (Z-score)” value was -3.09 ± 0.58.
For the molecule `CNC[C@@H]1Oc2ccc(NS(C)(=O)=O)cc2CC(=O)N([C@H](C)CO)C[C@@H]1C`, the “cell shape (Z-score)” value worked out at 2.39.
Consider `O=c1[nH]c2cc(Cl)ccc2c(O)c1-c1cccc(Oc2ccccc2)c1`, for which the “cell shape (Z-score)” value was -0.358.
The value for `CC1CCc2cc(F)cc3c(=O)c(C(=O)O)cn1c23` (configuration not stated) was 1.58.
To `Nc1cc2ncnc(Nc3cccc(Br)c3)c2cc1N` belongs -3.01; to `O=C(OCC1OC(Oc2ccc(O)cc2COC(=O)C2(O)C(O)CCC(=O)C2O)C(O)C(O)C1O)c1ccccc1` (configuration not stated), -1.23; to `CC(C)(CO)Cc1cc(C(C)(C)C)c(O)c(C(C)(C)C)c1`, 3.65.
The value for `Fc1ccc(-c2nc3n(c2-c2ccncc2)CCS3)cc1` was 3.5; that for `C=C(C)C(=O)O[C@H]1CC(=C)C2C[C@H](O)[C@](O)(CO)C2[C@H]2OC(=O)C(=C)[C@H]12` (some centres not stated) was -0.704; that for `CCCCC1=NC2(CCCC2)C(=O)N1Cc1ccc(-c2ccccc2-c2nnn[nH]2)cc1` was 0.959.
In the case of `Cn1c(=O)n(-c2ccc(C(C)(C)C#N)cc2)c2c3cc(-c4cnc5ccccc5c4)ccc3ncc21`, the “cell shape (Z-score)” value is -0.629.
On to `CC(NCC(O)CP(=O)(O)CC1CCCCC1)c1ccc(Cl)c(Cl)c1` (configuration not stated), for which the “cell shape (Z-score)” value is 0.932.
To `CC(C)=CCC/C(C)=C/COc1ccc2ccc(=O)oc2c1` belongs -1.73; to `CCC(C)C(=O)c1c(O)cc2c(c1O)CC(CC=C(C)C)C(C)(C)O2` (configuration not stated), -3.7; to `O=c1ccc2ccc(O)c(O)c2o1`, -1.68.
The value for `Cc1ccc(C(C)C)cc2c(C)ccc1-2` was 1.03; that for `COC1=C(OC)C(=O)C(CCCCCCCCCCO)=C(C)C1=O` was 0.991; that for `C=C(CC)C(=O)c1ccc(OCC(=O)O)c(Cl)c1Cl` was 3.27.
To `C=C1C(=O)OC2CC3(C)CCC=C(CO)C3CC12` (configuration not stated) belongs -3.71.
Turning to `CCS(=O)(=O)N1CCC[C@@H]2CN3CCc4cc(OC)ccc4[C@@H]3C[C@@H]21`, the “cell shape (Z-score)” value was determined as 1.75.
The value for `C=C(C(=O)O)C(CCCCCC)C(=O)O` (configuration not stated) was 3.8; that for `COc1ccc(N(C(=O)c2ccccc2)S(=O)(=O)c2cc(OC)ccc2OC)cc1` was 5.66; that for `CC(=O)O[C@H]1C(=O)[C@@]2(C)C([C@H](OC(=O)c3ccccc3)[C@]3(O)C[C@H](OC(=O)[C@H](O)[C@@H](NC(=O)c4ccccc4)c4ccccc4)C(C)=C1C3(C)C)[C@]1(OC(C)=O)CO[C@@H]1C[C@@H]2O` (some centres not stated) was -4.41 and -4.29 and -4.69.
To `CC1CCCC2=CC(OC2=O)C(C)(C)CCC1=O` (configuration not stated) belongs -0.683; to `CC(C)CC(=O)Nc1n[nH]c2c1CN(C(=O)C1CCN(C)CC1)C2(C)C`, 2.68.
The value for `Cc1cccc(C(=O)O)c1O` was 0.767; that for `COc1cc([C@H]2c3cc(O)c(OC)cc3C[C@@](O)(CO)[C@@H]2CO)ccc1O` was 2.44; that for `CCn1cc(C(=O)O)c(=O)c2cnc(N3CCNCC3)nc21` was 0.375.
On to `C[C@@H]1O[C@@H](O[C@H]2[C@@H]3C=CO[C@@H](O[C@@H]4O[C@H](CO)[C@@H](O)[C@H](O)[C@H]4O)[C@@H]3[C@@]3(CO)O[C@@H]23)[C@H](O)[C@H](O)[C@H]1OC(=O)/C=C/c1ccccc1`, for which the “cell shape (Z-score)” value was found to be 1.81.
To `COc1ccc(S(=O)(=O)N(C(C)=O)c2ccc(OC(C)=O)c3ccccc23)cc1[N+](=O)[O-]` belongs -0.464.
As to `Cc1ccc2c(=O)c3ccccc3n(CCCN)c2c1C`, the “cell shape (Z-score)” value was 8.39.
To `COc1ccc(NC(=O)c2cc(OCCCN(C)C)nn2Cc2ccccc2)cc1` belongs -0.951; to `Cc1cc(CC(C)CC(C)(C)C)n(O)c(=O)c1` (configuration not stated), -3.7; to `CC(C)=CCc1c(O)cc2occ(-c3ccc(O)cc3O)c(=O)c2c1O`, 1.07.
To `CN1CCN(C(=O)C[C@H]2CC[C@H](NC(=O)c3ccc4c(c3)OCO4)[C@@H](CO)O2)CC1` belongs 2.05; to `N[C@H](C(=O)O)[C@@H]1CC(Cl)=NO1`, -0.884; to `Cc1c(OCC(F)(F)F)ccnc1CS(=O)c1nc2ccccc2[nH]1` (configuration not stated), 3.11.
